Assay results from PubChem BioAssay AID328 (DTP/NCI, 2004).
The list shows only some results of the screen, not a fair sample: it gathers tests that were run many times, whatever their T/C, doses with no T/C, and many T/C values between a quarter and a half above the control. Further doses and runs are listed elsewhere. T/C gives the treated animals as a percentage of the vehicle group. Some doses have a count of surviving animals in place of a T/C: the source files T/C as zero there, which appears to mark a toxic dose or a test without result, not a measured value. Some survivor counts are full or nearly so, which does not show that the dose was tolerated: survival well below the control is almost never listed, so the zero probably covers shortened survival too. Counts of survivors are from the toxicity check (mostly the fifth day) where no day follows; animals may have died later. Schedules are NCI's codes, read here as Q, the interval in days (D) or hours (H), X, the number of doses. For survival time, the PubChem record calls one and a half times the control and up active, and a quarter to a half above the control has no call in these data; cut-offs in other NCI protocols can differ. Some entries were tested several times; the values are given in rising order.

Tested on: BDF1 mice, P388 leukemia ip, median survival T/C
Assay: NCI In Vivo Anticancer Drug Screen. Data for tumor model P388 Leukemia (intraperitoneal) in B6D2F1 (BDF1) mice
Conditions: T/C endpoint: median survival time, higher T/C = longer survival
Procedure, shortened: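 Survival ratio, drug arm over vehicle arm, in mice with a transplanted tumour.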

[1] = dose: 100.0 mg/kg/injection, schedule: Q01DX009 (ip), vehicle: Klucel (hydroxypropylcellulose) (HPC)
[2] = dose: 25.0 mg/kg/injection, schedule: Q01DX009 (ip), vehicle: saline
[3] = dose: 100.0 mg/kg/injection, schedule: Q01DX009 (ip), vehicle: saline
[4] = dose: 200.0 mg/kg/injection, schedule: Q01DX009 (ip), vehicle: saline with Tween-80
[5] = dose: 100.0 mg/kg/injection, schedule: Q01DX009 (ip), vehicle: saline with Tween-80

With COc1c(C=O)c2c(c(OC)c1OC)-c1ccc(OC)c(=O)cc1[C@@H](NC(C)=O)CC2 the survivor count (dose: 12.5 mg/kg/injection, schedule: Q01DX009 (ip), vehicle: Klucel (hydroxypropylcellulose) (HPC)) was 6 of 6, the survivor count (dose: 25.0 mg/kg/injection, schedule: Q01DX009 (ip), vehicle: Klucel (hydroxypropylcellulose) (HPC)) was 5 of 6 and the survivor count (dose: 50.0 mg/kg/injection, schedule: Q01DX009 (ip), vehicle: Klucel (hydroxypropylcellulose) (HPC)) was 0 of 6. The survivor count [1] was 0 of 6 and the survivor count (dose: 200.0 mg/kg/injection, schedule: Q01DX009 (ip), vehicle: Klucel (hydroxypropylcellulose) (HPC)) was 0 of 6.
With CNNC(=O)NC the survivor count (dose: 16.5 mg/kg/injection, schedule: Q01DX009 (ip), vehicle: saline) was 6 of 6, the T/C [2] was 138 % of control and the survivor count [2] was 6 of 6. The survivor count (dose: 37.5 mg/kg/injection, schedule: Q01DX009 (ip), vehicle: saline) was 5 of 6, the survivor count (dose: 50.0 mg/kg/injection, schedule: Q01DX009 (ip), vehicle: saline) was 5 of 6 and the survivor count [3] was 0 of 6.
CCCCCCOC(=O)/C=C(/C)OCCCCCC was tested, and the T/C [4] was 130 % of control.
In the case of CCCCC(CC)C(=O)[O][Sn]([CH2]CCC)([CH2]CCC)[O]C(=O)C(CC)CCCC (stereo not given), the T/C (dose: 25.0 mg/kg/injection, schedule: Q04DX003 (ip), vehicle: acetone) is reported as 125 % of control.
C[N+](C)(C)Cc1ccccc1 was tested, and the survivor count (dose: 100.0 mg/kg/injection, schedule: Q04DX003 (ip), vehicle: saline with Tween-80) was 0 of 6.
CCC/C=C/C=C/C1CC(O)C(O)C(=O)C1C=O (stereo not given) was tested, and the survivor count [5] was 0 of 6.
c1ccc(C[n+]2ccc3ccccc3c2)cc1 was tested, and the survivor count (dose: 50.0 mg/kg/injection, schedule: Q04DX003 (ip), vehicle: saline) was 6 of 6.
In the case of O=C1CSC(=O)CS1, the survivor count [4] is reported as 4 of 6.
With CCCCCCCCCCCC[N+](C)(C)Cc1ccccc1 the T/C (dose: 3.12 mg/kg/injection, schedule: Q01DX009 (ip), vehicle: saline) was 127 and 133 % of control, the T/C (dose: 4.68 mg/kg/injection, schedule: Q01DX009 (ip), vehicle: saline) was 142 % of control and the survivor count (dose: 6.6 mg/kg/injection, schedule: Q01DX009 (ip), vehicle: saline) was 0 of 6. The survivor count (dose: 7.0 mg/kg/injection, schedule: Q04DX003 (ip), vehicle: saline) was 4 of 6, the survivor count (dose: 10.0 mg/kg/injection, schedule: Q01DX009 (ip), vehicle: saline) was 0 of 6 and the survivor count (dose: 14.0 mg/kg/injection, schedule: Q04DX003 (ip), vehicle: saline) was 4 of 6. For the same compound, the survivor count (dose: 15.0 mg/kg/injection, schedule: Q01DX009 (ip), vehicle: saline) was 0 of 6.
Nc1nccc(NC(c2ccccc2)c2ccccc2)c1N was tested, and the survivor count (dose: 25.0 mg/kg/injection, schedule: Q01DX009 (ip), vehicle: DMSO) was 1 of 6 and the survivor count (dose: 50.0 mg/kg/injection, schedule: Q01DX009 (ip), vehicle: DMSO) was 0 of 6.
Oc1c(Cl)cc(Cl)cc1C1Nc2ccccc2-n2cccc21 (stereo not given) was tested, and the survivor count (dose: 50.0 mg/kg/injection, schedule: Q01DX009 (ip), vehicle: saline with Tween-80) was 6 of 6 and the survivor count [5] was 6 of 6.
For CNC(=S)N(C)C, the T/C (dose: 400.0 mg/kg/injection, schedule: Q01DX001 (ip), vehicle: saline) was 130 % of control.
For COc1cc(OC)c2c[n+](C)c3c4cc(OC)c(OC)cc4ccc3c2c1, the T/C (dose: 6.25 mg/kg/injection, schedule: Q01DX009 (ip), vehicle: Klucel (hydroxypropylcellulose) (HPC)) was 144 % of control and the survivor count [1] was 6 of 6.
In the case of CCCCCCCCCCC(C)c1ccc(S(=O)(=O)O)cc1 (stereo not given), the T/C [5] is reported as 136 % of control and the survivor count [4] is reported as 1 of 6.
CCNC(=S)N/N=C\C=N/NC(=S)NCC was tested, and the survivor count (dose: 150.0 mg/kg/injection, schedule: Q01DX009 (ip), vehicle: saline with Tween-80) was 7 of 7.
In the case of CC(=O)C(C)=P(c1ccccc1)(c1ccccc1)c1ccccc1, the survivor count [3] is reported as 3 of 6.
